Measurements: article PMC13316113
The exact form of at least one protein or probe is not confirmed.

Assays:
[1] = system: PTBP1; assay: EMSA; conditions: Kd only in figure, 600 nM is at least 10x Kd; EMSA: 50 mM Tris-HCl pH 7.5 (25 C), 100 mM KCl (or LiCl), 2.5 mM MgCl2, 0.1 mM ZnCl2, 2 mM 2-mercaptoethanol, 0.05 mg/ml BSA, 0.05 mg/ml yeast tRNA, 5% glycerol; recombinant protein; label: 32P
[2] = system: PTBP1; assay: UV crosslinking; conditions: efficient; recombinant protein; label: 32P

UCUUUCUUCUUUCUUCUUUCUUCUUUCUUCUUUCUUCUUUCU [(UCUUUCU)6]
binding result [1]: binds
binding result [2]: binds
